Test results reported in article PMC4538820, “The XRCC1 phosphate-binding pocket binds poly (ADP-ribose) and is required for XRCC1 function” (Nucleic Acids Research, 2015).
Results are given in words; binding and its absence hold for the method and conditions named. Binding seen in cells or lysates may run through a third protein. Some binding calls cover weakened binding; strength is not graded here.

Chains of the proteins cited; added tags and fusions are not shown. Lines headed by an entry give the natural chain unless they say otherwise; changes in a name come on top. Residues count along the entry.
UniProt P18887: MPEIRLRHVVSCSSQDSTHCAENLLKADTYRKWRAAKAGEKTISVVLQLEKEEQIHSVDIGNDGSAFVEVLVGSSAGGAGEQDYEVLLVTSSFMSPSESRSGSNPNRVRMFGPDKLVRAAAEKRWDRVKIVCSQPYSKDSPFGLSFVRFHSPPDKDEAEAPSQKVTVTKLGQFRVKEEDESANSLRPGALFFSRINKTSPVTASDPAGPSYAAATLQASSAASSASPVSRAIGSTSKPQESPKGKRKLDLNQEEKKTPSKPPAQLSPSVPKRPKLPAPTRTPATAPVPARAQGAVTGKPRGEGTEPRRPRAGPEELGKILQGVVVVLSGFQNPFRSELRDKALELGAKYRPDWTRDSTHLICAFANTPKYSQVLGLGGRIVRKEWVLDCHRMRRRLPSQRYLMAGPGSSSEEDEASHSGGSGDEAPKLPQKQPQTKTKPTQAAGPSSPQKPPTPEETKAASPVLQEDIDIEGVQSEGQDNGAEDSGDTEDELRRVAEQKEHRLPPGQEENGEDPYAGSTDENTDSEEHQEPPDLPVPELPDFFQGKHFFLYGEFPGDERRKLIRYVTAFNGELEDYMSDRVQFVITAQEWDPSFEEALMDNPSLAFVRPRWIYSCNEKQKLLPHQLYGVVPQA
EGFP-XRCC1^161–406: residues 161-406 of P18887
UniProt P09874: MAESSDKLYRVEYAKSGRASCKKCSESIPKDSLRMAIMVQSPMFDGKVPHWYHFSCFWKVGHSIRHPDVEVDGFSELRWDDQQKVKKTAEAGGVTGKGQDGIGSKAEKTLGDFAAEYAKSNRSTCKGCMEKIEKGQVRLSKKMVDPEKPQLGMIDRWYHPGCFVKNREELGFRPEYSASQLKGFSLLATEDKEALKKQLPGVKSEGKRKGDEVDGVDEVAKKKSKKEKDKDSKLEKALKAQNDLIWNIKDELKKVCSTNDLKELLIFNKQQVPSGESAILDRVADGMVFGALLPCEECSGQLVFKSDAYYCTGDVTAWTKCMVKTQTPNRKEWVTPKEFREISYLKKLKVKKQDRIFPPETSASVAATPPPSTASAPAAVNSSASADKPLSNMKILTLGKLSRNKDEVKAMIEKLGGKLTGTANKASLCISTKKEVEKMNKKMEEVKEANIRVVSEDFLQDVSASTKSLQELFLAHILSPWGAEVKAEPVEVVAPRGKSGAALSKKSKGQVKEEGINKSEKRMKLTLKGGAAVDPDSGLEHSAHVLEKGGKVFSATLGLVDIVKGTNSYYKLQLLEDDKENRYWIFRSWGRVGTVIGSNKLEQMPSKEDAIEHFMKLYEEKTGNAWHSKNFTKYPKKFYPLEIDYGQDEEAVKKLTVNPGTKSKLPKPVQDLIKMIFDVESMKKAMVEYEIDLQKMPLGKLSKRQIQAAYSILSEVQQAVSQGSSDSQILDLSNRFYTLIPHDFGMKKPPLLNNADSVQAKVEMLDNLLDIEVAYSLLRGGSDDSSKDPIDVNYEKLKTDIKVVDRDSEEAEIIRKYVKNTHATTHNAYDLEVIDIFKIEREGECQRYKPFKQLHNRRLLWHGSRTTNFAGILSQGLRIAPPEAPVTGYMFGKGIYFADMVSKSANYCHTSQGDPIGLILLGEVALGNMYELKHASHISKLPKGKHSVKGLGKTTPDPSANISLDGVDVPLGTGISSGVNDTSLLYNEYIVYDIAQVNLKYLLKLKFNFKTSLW

Assays:
[1] = target: full length EGFP-XRCC1 (human) (UniProt P18887); assay: co-IP; EGFP-XRCC1 recovered on GFP-Trap beads from extract of stably transfected U2OS^GFP-XRCC1 cells; 25 mM HEPES pH 7.8, 150 mM NaCl, 10% glycerol, 0.5% Triton X-100; blot with anti-PARP1; with or without PARP inhibitor (500 nM Ku-58948) in the medium for 1 h and in the lysis buffer
[2] = target: EGFP-XRCC1^161–406 (human) (UniProt P18887); assay: co-IP; U2OS cells transiently co-transfected with EGFP-XRCC1 161-406 constructs and mCherry-PARP1 constructs; GFP-Trap beads from whole cell extract; 25 mM HEPES pH 7.8, 150 mM NaCl, 10% glycerol, 0.5% Triton X-100; blot with anti-GFP and anti-PARP1

| Substance | binding [1] | binding [2] |
| --- | --- | --- |
| endogenous PARP1 (from UniProt P09874 1-1014) (enzyme) | binds | – |
| mCherry-PARP1 (from UniProt P09874 1-1014) (enzyme) | – | binds |
| mCherry-PARP1^E988K (from UniProt P09874 1-1014) (enzyme) | – | binds |
